# Data as given in PubChem BioAssay (EPA / NIEHS).
# Where “and” joins values, the source holds several entries; their conditions need not be identical. Equal entries are not always repeated. The shares of active, inactive and inconclusive entries below differ from those in the screen. Where the call is inconclusive, the potency comes from a doubtful curve fit. Calls of active or inactive are those of the source. The calls were made as follows: active = hit-call score of the fitted dose curve at least 0.9, where 1 is the maximum; inconclusive = response in the unintended direction; inactive = score below 0.9.
# Test: ACEA_ER_AUC_viability: ACEA Biosciences xCELLigence Real-Time Cell Analysis on Estrogen Receptor Agonism for Viability (AID 2283782);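 also: continuous compound exposure with impedance area under curve over 80 h; hit means loss of impedance signal meaning reduced cell growth or viability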
# Method in brief: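 T-47D; phenol red-free RPMI1640 + 10% CS-FBS; 8 conc., 1:4 serial, max 100 uM final, ≤0.5% DMSO; n = 2; continuous exposure; impedance monitored to 80 h post-dose; AUC vs DMSO.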
Structure (SMILES),outcome,AC50
NC(=O)C(F)(F)C(F)(F)C(F)(F)F,inactive,
CCCCCCCCCCCCCCCCCC(=O)OCC(CC)CCCC (stereo not drawn),inactive,
O=C(Cl)c1cccc(C(=O)Cl)c1,inactive,
O=c1c(O)c(-c2ccc(O)cc2)oc2cc(O)cc(O)c12,,inconclusive: 1.1 µM
O=C1NC(=O)c2ccccc21,,inconclusive: 50 µM
CCCCCCCCCCCCN1CCCC1=O,,inconclusive: 50 µM
CCCCC(CC)COS(=O)(=O)O (stereo not drawn),,inconclusive: 0.094 µM
CCCCC(CC)(CO)CO,,inconclusive: 0.0531 µM
Brc1ccccn1,inactive,
CC/C=C\CCOC(=O)CC,inactive,
CC1(C)CC(N=C=O)CC(C)(CN=C=O)C1 (stereo not drawn),,inconclusive: 21.1 µM
CC(=O)c1ccc2c(c1)[C@H](NC(=O)c1ccc(F)cc1)[C@@H](O)C(C)(C)O2,,inconclusive: 0.00058 µM
O=C(Oc1ccccc1)c1ccccc1C(=O)Oc1ccccc1,,active: 86.1 µM
CCCCCC/C=C/CCCCCCCC(=O)O,,active: 50 µM
CC(C)(C)c1ccc(O)c(O)c1,,active: 23.4 µM
CCCCCCCCOS(=O)(=O)O,,inconclusive: 0.0161 µM
COc1cc(CCC(C)=O)ccc1O,,inconclusive: 0.012 µM
CCCCCCCCCCCCCC,inactive,
CCN(CC)c1ccc(C=O)c(O)c1,,inconclusive: 50 µM

# Two compounds drawn at random from the list so far, as already listed:
Structure (SMILES),outcome,AC50
CCCCCCCCCCCCN1CCCC1=O,,inconclusive: 50 µM
CCCCCCCCOS(=O)(=O)O,,inconclusive: 0.0161 µM

# Carrying on.

Structure (SMILES),outcome,AC50
C=CC(=O)OCC(F)(F)C(F)(F)C(F)(F)C(F)(F)COC(=O)C=C,,inconclusive: 25 µM
CC(C)=CCCC(C)O (stereo not drawn),inactive,
CN(C)c1ccc(C(=C2C=CC(=[N+](C)C)C=C2)c2ccccc2)cc1,,active: 3.16 µM and active: 3.1 µM
C[C@H](CCC(=O)O)[C@H]1CC[C@H]2[C@@H]3CC[C@@H]4C[C@H](O)CC[C@]4(C)[C@H]3CC[C@]12C,,active: 85.2 µM
COc1ccc([N+](=O)[O-])cc1N,,inconclusive: 0.185 µM
CN(C)C,inactive,
COc1ccc(OC)cc1,,inconclusive: 83.3 µM
OCC(F)(F)C(F)(F)C(F)(F)F,inactive,
OCC(O)CC(F)(F)C(F)(F)C(F)(F)C(F)(F)F (stereo not drawn),,inconclusive: 28.6 µM
CCCC1CCC(=O)O1 (stereo not drawn),inactive,
CCCC/C=C\CCCCCCCCCC=O,,active: 91.2 µM
O=C(Oc1ccccc1)c1ccccc1,inactive,
CCc1occc(=O)c1O,inactive,
OCC(F)(F)C(F)(F)C(F)(F)C(F)(F)C(F)(F)C(F)(F)C(F)(F)C(F)(F)CO,,active: 75 µM
C=CCCCCCCCCCC,inactive,
c1ccc2ncccc2c1,,inconclusive: 9.92 µM
C=C(C)C(=O)OCCOC(=O)C(=C)C,,inconclusive: 7.33 µM
Clc1ccc(Cl)c(Cl)c1Cl,inactive,
Cc1ccc(C)c(O)c1,inactive,
